These are yes or no findings as the source states them, for the method shown. Binding seen in cells or lysates may run through a third protein. Some results given as binding are weak or reduced against the parent protein; the word gives no strength.
Target: HIF-1α (human (endogenous in HuH-7)) (UniProt Q16665)
Experiment: co-IP; endogenous proteins in HuH-7 cells under hypoxia for 24 hours; normal rabbit IgG as control

Sequences of proteins named here, by UniProt entry; tags and fusion partners are left off.
UniProt Q16665: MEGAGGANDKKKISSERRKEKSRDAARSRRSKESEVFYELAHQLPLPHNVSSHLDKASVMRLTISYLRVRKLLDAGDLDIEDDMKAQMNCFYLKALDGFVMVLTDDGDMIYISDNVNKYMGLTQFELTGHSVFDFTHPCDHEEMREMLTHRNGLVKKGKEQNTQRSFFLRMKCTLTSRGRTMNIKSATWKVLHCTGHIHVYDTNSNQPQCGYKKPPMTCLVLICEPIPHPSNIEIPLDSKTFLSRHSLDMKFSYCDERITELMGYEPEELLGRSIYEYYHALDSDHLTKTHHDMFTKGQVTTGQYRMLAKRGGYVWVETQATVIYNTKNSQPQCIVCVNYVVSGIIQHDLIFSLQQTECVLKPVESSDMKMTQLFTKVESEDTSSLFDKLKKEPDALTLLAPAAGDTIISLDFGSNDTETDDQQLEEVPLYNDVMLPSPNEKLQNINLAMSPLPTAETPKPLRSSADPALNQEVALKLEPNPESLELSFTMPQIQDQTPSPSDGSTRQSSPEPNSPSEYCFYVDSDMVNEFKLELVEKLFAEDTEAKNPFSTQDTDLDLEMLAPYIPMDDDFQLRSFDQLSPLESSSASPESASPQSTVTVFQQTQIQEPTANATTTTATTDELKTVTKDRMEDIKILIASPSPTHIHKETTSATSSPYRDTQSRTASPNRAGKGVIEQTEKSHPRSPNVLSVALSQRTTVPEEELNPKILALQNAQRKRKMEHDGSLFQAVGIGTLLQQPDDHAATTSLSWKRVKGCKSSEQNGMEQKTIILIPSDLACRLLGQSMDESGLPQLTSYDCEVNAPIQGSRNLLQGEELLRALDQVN
UniProt P11413: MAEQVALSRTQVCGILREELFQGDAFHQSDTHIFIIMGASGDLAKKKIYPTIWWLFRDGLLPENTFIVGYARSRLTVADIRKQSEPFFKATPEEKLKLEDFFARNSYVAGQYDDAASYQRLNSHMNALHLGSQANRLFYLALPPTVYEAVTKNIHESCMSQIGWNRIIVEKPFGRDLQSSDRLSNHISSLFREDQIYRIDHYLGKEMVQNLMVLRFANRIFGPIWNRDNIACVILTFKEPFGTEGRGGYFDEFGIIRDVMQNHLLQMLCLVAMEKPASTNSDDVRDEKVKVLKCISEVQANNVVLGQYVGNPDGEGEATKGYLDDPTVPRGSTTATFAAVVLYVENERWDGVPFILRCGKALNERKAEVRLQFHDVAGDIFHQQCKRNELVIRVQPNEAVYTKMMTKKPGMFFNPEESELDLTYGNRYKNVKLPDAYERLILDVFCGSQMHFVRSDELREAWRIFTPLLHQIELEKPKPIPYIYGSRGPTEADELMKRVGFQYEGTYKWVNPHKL

Glucose-6-phosphate dehydrogenase (from UniProt P11413 1-515)
binding: binds
